Screen size: about 340,000 compounds; about 170 (0.05%) were called active. The shares of active, inactive and inconclusive entries below differ from those in the screen. Calls follow the shape of the dose curve; as a rule, active = well fitted inhibition curve with a large enough effect in the signal ratio, with a control signal flat (not every such curve was filed as active); inconclusive = small, poorly fitted or top-dose-only effect, or effect the other way, or a change in a side signal; inactive = flat fitted curve, though single readings scatter; the % refers to the signal ratio. Potencies of inconclusive entries are doubtful fits and often do not repeat.
assay: qHTS Assay to Find Inhibitors of Chronic Active B-Cell Receptor Signaling; settings: ABC-DLBCL IkBa-CBG/CBR reporter, luminescence ratio (green luciferase fused to IkBa over red control in TMD8 lymphoma cells), 4 h; activity change, negative = inhibition: at 46.1 µM (top of the series);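 as to activity change, negative = inhibition: plate controls were basal doxycycline-induced cells for no effect and cells given 10 µM MG132 for full effect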
Procedure, shortened: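 Doxycycline induced both beetle luciferases in TMD8 lymphoma cells; IKK-driven degradation limits the IkappaBalpha-fused green signal, while red luminescence normalises for cell number and nonspecific effects. Compounds tested up to 46 uM, 4 hrs.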
Potency is read from the fitted curve at half-maximal effect.

SMILES | Potency | activity change, negative = inhibition
O=C(/C=C/c1ccc(F)cc1)NC(=S)NNC(=O)c1cccnc1 | inconclusive: 8.2 µM [falling, partial curve] | –
COc1ccc(C(CC(=O)c2ccc(C)cc2)C(C#N)C#N)cc1OC (centres undefined) | – | inconclusive: -0.177%
CCN(CC)c1ccc(C(=S)NC2CCCCC2)cc1 | – | inconclusive: 7.76%
COc1ccc(C(=O)OCC(=O)Nc2ccc(F)c(F)c2)cc1OC | – | inconclusive: -4.96%
COc1cc(C(=O)Nn2cnnc2)ccc1OC(F)F | – | inactive: 1.6%
CC(=N\Nc1ccc(Cl)cc1)/C(=N/O)C(=O)Nc1ccccc1 | – | inactive: 11.8%
S=c1nc(-c2ccccc2)n(CCN2CCOCC2)c2c1CCCC2 | – | inconclusive: -3.09%
O=C(Nc1cccc(F)c1)C1CCCN1S(=O)(=O)c1cccc2cccnc12 (centres undefined) | – | inconclusive: -6.89%
CC(C)CNc1nc(Oc2ccc(=O)n(C)n2)nc(N2CCOCC2)n1 | – | inactive: -5.98%
CCOc1ccccc1N1CC(C(=O)Nc2ccc(C(=O)O)cc2)CC1=O (centres undefined) | – | inconclusive: 15.1%
Cc1ccc(S(=O)(=O)N2[C@@H](c3ccc(Cl)c(Cl)c3)C(C(=O)O)=C[C@H]2CC2CCCC2)cc1 | – | inactive: -2.76%
O=C(Cn1c(NCCCO)nc2ccccc21)c1ccc(Cl)cc1 | – | inconclusive: -0.896%
O=C(Cc1cccs1)N/N=C/C(Cl)=C/c1ccccc1 | – | inactive: 1.24%
CCOC(=O)N1CCN(C(=O)c2cc(-c3ccc(OCC)cc3)nc3ccccc23)CC1 | – | inactive: -9.92%
CCOc1ccc(C(=O)Nc2ncccc2Cl)cc1 | inconclusive: 15.8 µM [falling, single point] | –
CCOC(=O)N1CCC(NC(=O)CSCc2nc(-c3sccc3C)oc2C)CC1 | – | inconclusive: 5.43%
Cc1cccc(C(C)Nc2ccc([N+](=O)[O-])cn2)c1 (centres undefined) | – | inconclusive: 0.416%
COc1cc(/C=N/NC(=O)c2ccc(Cl)cc2)ccc1OCC(=O)N1CC(C)OC(C)C1 (centres undefined) | – | inconclusive: 10.2%
Cc1cc(C)nc(Sc2nc(C)nc3c2oc2ccccc23)n1 | – | inconclusive: -9.53%
Cc1cccc(OCC(=O)Nc2ccc(C(=O)O)cc2NC(=O)COc2cccc(C)c2)c1 | – | inconclusive: -5.43%
COc1ccc(OC)c(-c2nc(C(N)=O)c3[nH]c(=O)n(-c4ccc(F)cc4)c3n2)c1 | – | inactive: -0.0834%
Nc1ccc2oc(-c3cccc4ccccc34)nc2c1 | inconclusive: 15.8 µM [falling, partial curve] | –
COCCN(C(=S)Nc1c(C)cc(C)cc1C)C(C)c1cccnc1 (centres undefined) | – | inactive: 1.08%
Cc1ccc(NC(=O)Cn2cc(C(=O)C3CC3)c3ccccc32)c(C)c1 | – | inconclusive: 8.25%

Quoted from the listing:
`Cc1ccc(NC(=O)Cn2cc(C(=O)C3CC3)c3ccccc32)c(C)c1` | activity change, negative = inhibition: inconclusive: 8.25%
`Cc1cccc(OCC(=O)Nc2ccc(C(=O)O)cc2NC(=O)COc2cccc(C)c2)c1` | activity change, negative = inhibition: inconclusive: -5.43%
